# “Also recorded” adds a separate entry of the source. Read-outs that look alike come from different tables or passages of the source. For at least one compound, name, drawing or mass did not settle the structure.
# What was measured:
# Type in all cases: biochemical
# [1] = target: c-MYC G-quadruplex (PU27 c-MYC sequence); assay: G-quadruplex polymerase stop assay, PU27 c-MYC template; settings: for EC50: Taq polymerase stop product, PU27 c-MYC template, 55° C., read-out: c-MYC (ED50 μM)
# [2] = target: human telomeric G-quadruplex; assay: G-quadruplex polymerase stop assay, human telomeric template; settings: Taq polymerase stop product, four TTAGGG repeats template, 37° C., read-out: Huam Telomeric (ED50 μM)
# [3] = tested on: Duplex DNA; assay: Polymerase stop assay, pausing at primer position (duplex product)
# Description: These were synthesized and purified as described above. Labeled primer (100 nM) and template DNA (100 nM) were annealed in an annealing buffer (50 mM Tris-HCl, pH 7.5, 10 mM NaCl) by heating to 95° C. and then slowly cooled to room temperature. […] KCl and NaCl (10 mM each) were added to the reaction. Taq DNA polymerase was added, and the mixture was incubated at 55° C. for 20 min.
# Pausing at the G-quadruplex forming site is quantified as the normalized percentage of stop product with respect to the total intensity per lane. […] This is quantified as the normalized percentage of duplex product with respect to the total intensity per lane.
smiles,measurement,setting,value
Cc1oc2nc1-c1nc(co1)-c1nc(co1)-c1nc(co1)-c1nc(co1)-c1nc(co1)C1=NC(CS1)c1nc-2c(C)o1 (stereo not drawn) [Telomestatin],EC50,[1]; listed as telomestatin,0.106 µM
same,EC50,[1],0.11 µM
same,fold selectivity/preference for the c-MYC G-quadruplex over the human telomeric G-quadruplex,[1]; from ED50 values,5 fold
same,EC50,[2]; listed as telomestatin,0.586 µM
same,EC50,[2],0.59 µM
same,"duplex (or single strand) DNA binding, in words",[3],considerable duplex or single strand binding
same,"duplex (or single strand) DNA binding, in words",[3]; listed as telomestatin,exhibit duplex DNA binding at higher concentrations; also recorded: considerable duplex interaction
same,Duplex DNA (ED30 μM),[3]; normalized percentage of duplex product,11.11 µM
same,"Duplex DNA ED30, fold in parentheses (relative to c-MYC ED50)",[3]; value in parentheses (×),100
